Laboratory results published in paper doi:10.1101/397851.
Results are given in words; binding and its absence hold for the method and conditions named. In cells and extracts the contact can be indirect. Some binding calls cover weakened binding; strength is not graded here.

Chains of the proteins cited; added tags and fusions are not shown.
UniProt Q924A0: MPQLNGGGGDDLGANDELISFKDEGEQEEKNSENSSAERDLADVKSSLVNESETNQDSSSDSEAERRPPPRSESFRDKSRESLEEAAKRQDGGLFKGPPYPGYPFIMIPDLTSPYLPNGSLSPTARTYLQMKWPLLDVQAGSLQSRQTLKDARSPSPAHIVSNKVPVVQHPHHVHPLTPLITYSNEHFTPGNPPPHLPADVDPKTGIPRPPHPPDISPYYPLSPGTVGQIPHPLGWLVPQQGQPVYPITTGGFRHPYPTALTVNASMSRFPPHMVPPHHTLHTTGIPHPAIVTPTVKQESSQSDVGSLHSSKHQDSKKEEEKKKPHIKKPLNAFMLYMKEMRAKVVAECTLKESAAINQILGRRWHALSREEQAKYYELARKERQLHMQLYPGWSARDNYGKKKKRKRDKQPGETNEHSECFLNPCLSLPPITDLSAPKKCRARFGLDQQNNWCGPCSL
UniProt Q61169: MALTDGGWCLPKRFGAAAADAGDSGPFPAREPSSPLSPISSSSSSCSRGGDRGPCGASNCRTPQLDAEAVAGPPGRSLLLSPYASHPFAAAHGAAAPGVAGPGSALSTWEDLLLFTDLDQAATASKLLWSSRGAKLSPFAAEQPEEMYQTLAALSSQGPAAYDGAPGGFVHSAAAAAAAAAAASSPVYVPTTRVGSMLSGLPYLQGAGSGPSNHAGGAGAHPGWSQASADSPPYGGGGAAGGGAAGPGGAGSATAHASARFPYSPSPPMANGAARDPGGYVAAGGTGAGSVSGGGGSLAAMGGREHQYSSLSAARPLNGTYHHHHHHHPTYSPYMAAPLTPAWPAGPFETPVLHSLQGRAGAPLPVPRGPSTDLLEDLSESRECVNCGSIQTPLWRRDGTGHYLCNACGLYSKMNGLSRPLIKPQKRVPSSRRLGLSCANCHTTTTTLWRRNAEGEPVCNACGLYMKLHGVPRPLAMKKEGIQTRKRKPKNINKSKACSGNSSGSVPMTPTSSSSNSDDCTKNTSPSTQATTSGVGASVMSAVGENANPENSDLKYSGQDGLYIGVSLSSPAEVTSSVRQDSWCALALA

Target: TCF7L2 (mouse (endogenous in primary aortic VSMC)) (UniProt Q924A0)
Assay: co-IP

binding: binds
Substance: GATA6 (from UniProt Q61169 1-589)
